# Experimental data from the supplement of paper PMC8728848.
# Some of the results follow.
# B1: BT4246 (Bacteroides thetaiotaomicron), Q89ZX5 (protein)
# chain: MGSSHHHHHHENLYFQGHMASDYLDVVPPEQPNIDDAMSSPTRALGFLYSCYGGVSTDLPSAYLGEINSTTDEYVLPYSWNTDGYWGAYAFNTASSTNQDWLWGTTYQYIGQCYLFLQKLENAGSDIASDAEKEQWRAECQFLVAYYHFATLRRYGPIPITDSYIPMDTPTSEYNGRFHFDYCVDWIANQLDEAAKVLPANRTVTNEWGRATSTIAKAVKARLLLYAASPLWNGSFPYPNWQNENFETPGYGKALVSNTYDKSKWERALAACQEALTLATTSGDRELYDDDEYYSRQSLNLPFVPGVADVEDNKEFLKNVMKMRYAVSTRESEGNKEIIWGLSNQFDFYSRYPLRILKKSDGTWHAGYSGVSPTLYTFEHFYTANGKLPEKDLDFTPSSEWFESAGISSREDIIKLNVGREPRFYAWMAFDGGDYGTKFAAGSPLKLEMRNSEMHGYNPSLFNRDHSVTGFLTQKFVDPVTEFYTAGGSTSGTSAPTILFRLAELYLNVAECHAALGNTQEAIDALNPVRERAGIPKLTLADITNNMTIKDWVHNERFVELWNEGHRFFDVRRWAEGAKYFGANKREGLNAEVQSPTFEEFNKRTTVDAPYVWENRMYLNPVFYNEVYKNPQMVQAPGY
# Assays:
# Test in all cases: glycan array binding signal (z-score within array); higher = stronger binding
# Conditions in all cases: glycan notation: IUPAC condensed, linker removed
# [1] = biological target: GlcNAc(b1-3)Gal(b1-4)GlcNAc(b1-3)Gal(b1-4)GlcNAc(b1-3)Gal(b1-4)GlcNAc(b1-3)Gal(b1-4)GlcNAc(b1-2)[GlcNAc(b1-3)Gal(b1-4)GlcNAc(b1-3)Gal(b1-4)GlcNAc(b1-3)Gal(b1-4)GlcNAc(b1-3)Gal(b1-4)GlcNAc(b1-6)]Man(a1-6)[GlcNAc(b1-3)Gal(b1-4)GlcNAc(b1-3)Gal(b1-4)GlcNAc(b1-3)Gal(b1-4)GlcNAc(b1-3)Gal(b1-4)GlcNAc(b1-2)Man(a1-3)]Man(b1-4)GlcNAc(b1-4)[Fuc(a1-6)]GlcNAc
# Outline: (§1)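 Columns mapping to the same glycan were averaged after glycan names were converted to IUPAC-condensed notation. The data come from 3228 arrays in the Consortium for Functional Glycomics database, limited to those with an available protein sequence. Binding is reported as a within-array Z-score averaged across arrays of one protein sequence and across linkers.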
# [2] = biological target: GlcNAc(b1-3)Gal(b1-4)GlcNAc(b1-3)Gal(b1-4)GlcNAc(b1-3)GalNAc
# Outline: as §1
# [3] = biological target: GlcNAc(b1-3)Gal(b1-4)GlcNAc(b1-3)GalNAc
# Outline: as §1
# [4] = biological target: GlcNAc(b1-3)Gal(b1-4)GlcNAc(b1-3)[GlcNAc(b1-3)Gal(b1-4)GlcNAc(b1-3)]GalNAc
# Outline: as §1
# [5] = biological target: GlcNAc(b1-3)Gal(b1-4)GlcNAc(b1-6)[Gal(b1-3)]GalNAc
# Outline: as §1
# [6] = biological target: GlcNAc(b1-3)Gal(b1-4)GlcNAc(b1-6)[GlcNAc(b1-3)Gal(b1-3)]GalNAc
# Outline: as §1
# [7] = biological target: GlcNAc(b1-3)Gal(b1-4)GlcNAc(b1-6)[GlcNAc(b1-3)]Gal(b1-4)GlcNAc
# Outline: as §1
# [8] = biological target: GlcNAc(b1-3)GalNAc
# Outline: as §1
# [9] = biological target: GlcNAc(b1-3)Man
# Outline: as §1
# [10] = biological target: GlcNAc(b1-3)[GlcNAc(b1-4)][GlcNAc(b1-6)]GlcNAc
# Outline: as §1
# [11] = biological target: GlcNAc(b1-3)[GlcNAc(b1-6)]Gal(b1-4)GlcNAc
# Outline: as §1
# [12] = biological target: GlcNAc(b1-3)[GlcNAc(b1-6)]GalNAc
# Outline: as §1
# [13] = biological target: GlcNAc(b1-4)Gal(b1-4)GlcNAc
# Outline: as §1
# [14] = biological target: GlcNAc(b1-4)GlcNAc
# Outline: as §1
# [15] = biological target: GlcNAc(b1-4)GlcNAc(b1-4)GlcNAc
# Outline: as §1
# [16] = biological target: GlcNAc(b1-4)GlcNAc(b1-4)GlcNAc(b1-4)GlcNAc(b1-4)GlcNAc
# Outline: as §1
# [17] = biological target: GlcNAc(b1-4)GlcNAc(b1-4)GlcNAc(b1-4)GlcNAc(b1-4)GlcNAc(b1-4)GlcNAc
# Outline: as §1
# [18] = biological target: GlcNAc(b1-4)[GlcNAc(b1-6)]GalNAc
# Outline: as §1
# [19] = biological target: GlcNAc(b1-6)Gal(b1-4)GlcNAc
# Outline: as §1
# [20] = biological target: GlcNAc(b1-6)GalNAc
# Outline: as §1
# [21] = biological target: GlcNAc6S(b1-3)Gal(b1-4)GlcNAc
# Outline: as §1
# [22] = biological target: Kdn(a2-3)Gal(b1-3)GalNAc
# Outline: as §1
# [23] = biological target: Kdn(a2-3)Gal(b1-3)GlcNAc
# Outline: as §1
# [24] = biological target: Kdn(a2-3)Gal(b1-4)Glc
# Outline: as §1
# [25] = biological target: Kdn(a2-3)Gal(b1-4)GlcNAc
# Outline: as §1
# [26] = biological target: Kdn(a2-3)Gal(b1-4)[Fuc(a1-3)]GlcNAc
# Outline: as §1
# [27] = biological target: Kdn(a2-6)Gal(b1-4)GlcNAc
# Outline: as §1
# [28] = biological target: Man(a1-2)Man(a1-2)Man(a1-3)Man
# Outline: as §1
# [29] = biological target: Man(a1-2)Man(a1-2)Man(a1-6)[Man(a1-3)]Man
# Outline: as §1
# [30] = biological target: Man(a1-2)Man(a1-3)Man
# Outline: as §1
binder,measurement,setting,value
B1,glycan array binding signal (z-score),[1],0.439
same,glycan array binding signal (z-score),[2],0.83
same,glycan array binding signal (z-score),[3],-1.07
same,glycan array binding signal (z-score),[4],-1.39
same,glycan array binding signal (z-score),[5],-0.339
same,glycan array binding signal (z-score),[6],0.694
same,glycan array binding signal (z-score),[7],-0.322
same,glycan array binding signal (z-score),[8],0.733
same,glycan array binding signal (z-score),[9],-0.227
same,glycan array binding signal (z-score),[10],-0.635
same,glycan array binding signal (z-score),[11],0.609
same,glycan array binding signal (z-score),[12],-0.647
same,glycan array binding signal (z-score),[13],-0.482
same,glycan array binding signal (z-score),[14],-0.318
same,glycan array binding signal (z-score),[15],-0.945
same,glycan array binding signal (z-score),[16],1.12
same,glycan array binding signal (z-score),[17],-1.28
same,glycan array binding signal (z-score),[18],-0.928
same,glycan array binding signal (z-score),[19],0.999
same,glycan array binding signal (z-score),[20],0.147
same,glycan array binding signal (z-score),[21],-0.822
same,glycan array binding signal (z-score),[22],-0.164
same,glycan array binding signal (z-score),[23],-0.04
same,glycan array binding signal (z-score),[24],0.592
same,glycan array binding signal (z-score),[25],-1.15
same,glycan array binding signal (z-score),[26],0.086
same,glycan array binding signal (z-score),[27],1.42
same,glycan array binding signal (z-score),[28],-0.66
same,glycan array binding signal (z-score),[29],0.128
same,glycan array binding signal (z-score),[30],-0.675

# Shown bar-delimited: part of the list above
binder | measurement | setting | value
B1 | glycan array binding signal (z-score) | [9] | -0.227
same | glycan array binding signal (z-score) | [19] | 0.999
